From patent publication US20240270727A1, “NEW SUBSTITUTED PYRIDINES AS FUNGICIDE” (BASF SE, priority 2021, published 2024)
Some entries share one result that the patent states for a list of compounds.

Tests used:
[1] = tested on: Microdochium nivale; assay: Example 7: activity against Microdochium nivale in the microtiterplate test; settings: 31 ppm, DOB media pH 7
[2] = tested on: Botrytis cinerea; assay: Example 4: activity against the grey mold Botrytis cinerea in the microtiterplate test; format: cell-based; settings: 31 ppm, relative to active compound-free control (100%)
[3] = tested on: Colletotrichum orbiculare; assay: Example 8: activity against Colletotrichum orbiculare in the microtiterplate test; settings: 31 ppm, DOB media pH 7
[4] = tested on: Mycosphaerella fijiensis; assay: Example 16: activity against Mycosphaerella fijiensis in the microtiterplate test; settings: 31 ppm, DOB media pH 7
[5] = tested on: Pyrenophora teres Qoi (FL129) resistant isolate; assay: Example 13: activity against Pyrenophora teres Qoi (FL129) resistant isolate in the microtiterplate test; settings: 31 ppm; Pyrenophora teres Qoi (FL129) resistant isolates; DOB media pH 7
[6] = tested on: Phytophthora infestans; format: cell-based; settings: 31 ppm, DOB media pH 7
[7] = tested on: Leptosphaeria maculans; assay: Example 14: activity against Leptosphaeria maculans in the microtiterplate test; settings: 31 ppm, DOB media pH 7
[8] = tested on: Sclerotinia sclerotiorum; assay: Example 20: preventative fungicidal control of white mold on oilseed rape caused by Sclerotinia sclerotiorum (green house); format: in vivo; settings: 100 g/ha, assessed after 14 days, untreated plants 100% infected
[9] = tested on: Leptosphaeria nodorum; assay: Example 9: activity against Leptosphaeria nodorum in the microtiterplate test; settings: 31 ppm, DOB media pH 7
[10] = tested on: Monilinia laxa; assay: Example 11: activity against Monilinia laxa in the microtiterplate test; settings: 31 ppm, DOB media pH 7
[11] = tested on: Botrytis cinerea; assay: Example 19: preventative fungicidal control of Botrytis cinerea on leaves of green pepper (green house); format: in vivo; settings: 250 ppm spray, inoculated next day, assessed after 5 days, untreated plants 90% infected
[12] = tested on: Venturia inaequalis; assay: Example 3: activity against Venturia inaequalis in the microtiterplate test; format: cell-based; settings: 31 ppm, relative to active compound-free control (100%)
[13] = tested on: Botrytis cinerea; assay: Example 22: long lasting control of Botrytis cinerea on leaves of green pepper (green house); settings: 100 g/ha, inoculated 7 days after treatment, assessed after 5 days, untreated plants 90% infected
[14] = tested on: Botrytis cinerea; assay: Example 21: preventative fungicidal control of Botrytis cinerea on leaves of green pepper (green house); format: in vivo; settings: 100 g/ha, inoculated next day, assessed after 5 days, untreated plants 100% infected
[15] = tested on: Corynespora cassiicola; assay: Example 17: activity against Corynespora cassiicola in the microtiterplate test; settings: 31 ppm, DOB media pH 7
[16] = tested on: Fusarium culmorum; assay: Example 5: activity against Fusarium culmorum in the microtiterplate test; format: cell-based; settings: 31 ppm, relative to active compound-free control (100%)

Row | SMILES | growth of the pathogen [1] [%] | growth of the pathogen [2] [%] | growth of the pathogen [3] [%] | growth of the pathogen [4] [%] | growth of the pathogen [5] [%] | growth of the pathogen [6] [%] | growth of the pathogen [7] [%] | growth of the pathogen (fungal attack assessed as % diseased leaf area) [8] | growth of the pathogen [9] [%] | growth of the pathogen [10] [%] | growth of the pathogen (fungal attack assessed as % diseased leaf area) [11] | growth of the pathogen [12] [%] | growth of the pathogen (fungal attack assessed as % diseased leaf area) [13] | growth of the pathogen (fungal attack assessed as % diseased leaf area) [14] | growth of the pathogen [15] [%] | growth of the pathogen [16] [%]
1 | Cc1cc(C2=NC(C(C)(C)C)COc3ccccc32)cnc1C (stereo not drawn) [Ex-1] | ≤ 19 | ≤ 1 | ≤ 15 | ≤ 20 | ≤ 19 | ≤ 19 | ≤ 19 | at most 15% | ≤ 12 | ≤ 20 | at most 15% | ≤ 20 |  |  |  | 
2 | Cc1cc(C2=NC(C)(C)C(C)(C)Oc3ccccc32)cnc1C(F)F [Ex-4] | ≤ 19 | ≤ 1 | ≤ 15 | ≤ 20 | ≤ 19 |  | ≤ 19 | at most 15% | ≤ 12 | ≤ 20 | at most 15% | ≤ 20 |  |  |  | 
3 | COCC1(C)Oc2ccccc2C(c2cnc(C)c(C)c2)=NC1(C)C (stereo not drawn) [Ex-9] | ≤ 19 | ≤ 1 | ≤ 15 |  | ≤ 19 | ≤ 19 |  |  | ≤ 12 | ≤ 20 | at most 15% |  |  |  |  | 
4 | COCC1(C)Oc2ccccc2C(c2cnc(C)c(C)c2)=NC1C (stereo not drawn) [Ex-13] | ≤ 19 | ≤ 1 | ≤ 15 |  | ≤ 19 | ≤ 19 |  |  | ≤ 12 | ≤ 20 | at most 15% |  |  |  |  | 
5 | Cc1cc(C2=NC(=O)C(C)(C)Oc3ccccc32)cnc1C [Ex-16] | ≤ 19 | ≤ 1 | ≤ 15 |  | ≤ 19 |  | ≤ 19 |  | ≤ 12 | ≤ 20 | at most 15% |  |  |  |  | 
6 | Cc1cc(C2=NCC(C)(C)Oc3cc(F)ccc32)cnc1C(F)F [Ex-25] | ≤ 19 | ≤ 1 | ≤ 15 | ≤ 20 | ≤ 19 |  | ≤ 19 | at most 15% | ≤ 12 | ≤ 20 |  |  | at most 14% | at most 18% | ≤ 16 | 
7 | Cc1cc(C2=NC(C)C(C)(C)Oc3cc(F)ccc32)cnc1C(F)F (stereo not drawn) [Ex-26] | ≤ 19 | ≤ 1 | ≤ 15 | ≤ 20 | ≤ 19 |  | ≤ 19 | at most 15% | ≤ 12 | ≤ 20 |  |  | at most 14% | at most 18% | ≤ 16 | ≤ 9
8 | Cc1cc(C2=NC(C)C(C)Oc3ccccc32)cnc1C(F)F (stereo not drawn) [Ex-45] | ≤ 19 | ≤ 1 | ≤ 15 | ≤ 20 | ≤ 19 |  | ≤ 19 | at most 15% | ≤ 12 | ≤ 20 |  | ≤ 20 | at most 14% |  | ≤ 16 | 
